Source: PubChem BioAssay AID2662 (National Center for Advancing Translational Sciences (NCATS), 2010)
The whole screen tested about 290,000 compounds, of which about 110 (0.038%) were called active. Inconclusive means that the source gave no clear call. Such entries were picked first, then a sample of the others. Calls follow the shape of the dose curve; as a rule, active = well fitted inhibition curve with a large enough effect in the polarisation, with a control signal flat (not every such curve was filed as active); inconclusive = small, poorly fitted or top-dose-only effect, or effect the other way, or a change in a side signal; inactive = no such curve, though single readings can be large or run the other way; the % refers to the polarisation. Potencies of inconclusive entries are doubtful fits and often do not repeat. A note “side channel” means that the fit belongs to a control or component signal, not to the main read-out.

Sequences of proteins named here, by UniProt entry; tags and fusion partners are left off.
UniProt Q03164, whole entry, looked up: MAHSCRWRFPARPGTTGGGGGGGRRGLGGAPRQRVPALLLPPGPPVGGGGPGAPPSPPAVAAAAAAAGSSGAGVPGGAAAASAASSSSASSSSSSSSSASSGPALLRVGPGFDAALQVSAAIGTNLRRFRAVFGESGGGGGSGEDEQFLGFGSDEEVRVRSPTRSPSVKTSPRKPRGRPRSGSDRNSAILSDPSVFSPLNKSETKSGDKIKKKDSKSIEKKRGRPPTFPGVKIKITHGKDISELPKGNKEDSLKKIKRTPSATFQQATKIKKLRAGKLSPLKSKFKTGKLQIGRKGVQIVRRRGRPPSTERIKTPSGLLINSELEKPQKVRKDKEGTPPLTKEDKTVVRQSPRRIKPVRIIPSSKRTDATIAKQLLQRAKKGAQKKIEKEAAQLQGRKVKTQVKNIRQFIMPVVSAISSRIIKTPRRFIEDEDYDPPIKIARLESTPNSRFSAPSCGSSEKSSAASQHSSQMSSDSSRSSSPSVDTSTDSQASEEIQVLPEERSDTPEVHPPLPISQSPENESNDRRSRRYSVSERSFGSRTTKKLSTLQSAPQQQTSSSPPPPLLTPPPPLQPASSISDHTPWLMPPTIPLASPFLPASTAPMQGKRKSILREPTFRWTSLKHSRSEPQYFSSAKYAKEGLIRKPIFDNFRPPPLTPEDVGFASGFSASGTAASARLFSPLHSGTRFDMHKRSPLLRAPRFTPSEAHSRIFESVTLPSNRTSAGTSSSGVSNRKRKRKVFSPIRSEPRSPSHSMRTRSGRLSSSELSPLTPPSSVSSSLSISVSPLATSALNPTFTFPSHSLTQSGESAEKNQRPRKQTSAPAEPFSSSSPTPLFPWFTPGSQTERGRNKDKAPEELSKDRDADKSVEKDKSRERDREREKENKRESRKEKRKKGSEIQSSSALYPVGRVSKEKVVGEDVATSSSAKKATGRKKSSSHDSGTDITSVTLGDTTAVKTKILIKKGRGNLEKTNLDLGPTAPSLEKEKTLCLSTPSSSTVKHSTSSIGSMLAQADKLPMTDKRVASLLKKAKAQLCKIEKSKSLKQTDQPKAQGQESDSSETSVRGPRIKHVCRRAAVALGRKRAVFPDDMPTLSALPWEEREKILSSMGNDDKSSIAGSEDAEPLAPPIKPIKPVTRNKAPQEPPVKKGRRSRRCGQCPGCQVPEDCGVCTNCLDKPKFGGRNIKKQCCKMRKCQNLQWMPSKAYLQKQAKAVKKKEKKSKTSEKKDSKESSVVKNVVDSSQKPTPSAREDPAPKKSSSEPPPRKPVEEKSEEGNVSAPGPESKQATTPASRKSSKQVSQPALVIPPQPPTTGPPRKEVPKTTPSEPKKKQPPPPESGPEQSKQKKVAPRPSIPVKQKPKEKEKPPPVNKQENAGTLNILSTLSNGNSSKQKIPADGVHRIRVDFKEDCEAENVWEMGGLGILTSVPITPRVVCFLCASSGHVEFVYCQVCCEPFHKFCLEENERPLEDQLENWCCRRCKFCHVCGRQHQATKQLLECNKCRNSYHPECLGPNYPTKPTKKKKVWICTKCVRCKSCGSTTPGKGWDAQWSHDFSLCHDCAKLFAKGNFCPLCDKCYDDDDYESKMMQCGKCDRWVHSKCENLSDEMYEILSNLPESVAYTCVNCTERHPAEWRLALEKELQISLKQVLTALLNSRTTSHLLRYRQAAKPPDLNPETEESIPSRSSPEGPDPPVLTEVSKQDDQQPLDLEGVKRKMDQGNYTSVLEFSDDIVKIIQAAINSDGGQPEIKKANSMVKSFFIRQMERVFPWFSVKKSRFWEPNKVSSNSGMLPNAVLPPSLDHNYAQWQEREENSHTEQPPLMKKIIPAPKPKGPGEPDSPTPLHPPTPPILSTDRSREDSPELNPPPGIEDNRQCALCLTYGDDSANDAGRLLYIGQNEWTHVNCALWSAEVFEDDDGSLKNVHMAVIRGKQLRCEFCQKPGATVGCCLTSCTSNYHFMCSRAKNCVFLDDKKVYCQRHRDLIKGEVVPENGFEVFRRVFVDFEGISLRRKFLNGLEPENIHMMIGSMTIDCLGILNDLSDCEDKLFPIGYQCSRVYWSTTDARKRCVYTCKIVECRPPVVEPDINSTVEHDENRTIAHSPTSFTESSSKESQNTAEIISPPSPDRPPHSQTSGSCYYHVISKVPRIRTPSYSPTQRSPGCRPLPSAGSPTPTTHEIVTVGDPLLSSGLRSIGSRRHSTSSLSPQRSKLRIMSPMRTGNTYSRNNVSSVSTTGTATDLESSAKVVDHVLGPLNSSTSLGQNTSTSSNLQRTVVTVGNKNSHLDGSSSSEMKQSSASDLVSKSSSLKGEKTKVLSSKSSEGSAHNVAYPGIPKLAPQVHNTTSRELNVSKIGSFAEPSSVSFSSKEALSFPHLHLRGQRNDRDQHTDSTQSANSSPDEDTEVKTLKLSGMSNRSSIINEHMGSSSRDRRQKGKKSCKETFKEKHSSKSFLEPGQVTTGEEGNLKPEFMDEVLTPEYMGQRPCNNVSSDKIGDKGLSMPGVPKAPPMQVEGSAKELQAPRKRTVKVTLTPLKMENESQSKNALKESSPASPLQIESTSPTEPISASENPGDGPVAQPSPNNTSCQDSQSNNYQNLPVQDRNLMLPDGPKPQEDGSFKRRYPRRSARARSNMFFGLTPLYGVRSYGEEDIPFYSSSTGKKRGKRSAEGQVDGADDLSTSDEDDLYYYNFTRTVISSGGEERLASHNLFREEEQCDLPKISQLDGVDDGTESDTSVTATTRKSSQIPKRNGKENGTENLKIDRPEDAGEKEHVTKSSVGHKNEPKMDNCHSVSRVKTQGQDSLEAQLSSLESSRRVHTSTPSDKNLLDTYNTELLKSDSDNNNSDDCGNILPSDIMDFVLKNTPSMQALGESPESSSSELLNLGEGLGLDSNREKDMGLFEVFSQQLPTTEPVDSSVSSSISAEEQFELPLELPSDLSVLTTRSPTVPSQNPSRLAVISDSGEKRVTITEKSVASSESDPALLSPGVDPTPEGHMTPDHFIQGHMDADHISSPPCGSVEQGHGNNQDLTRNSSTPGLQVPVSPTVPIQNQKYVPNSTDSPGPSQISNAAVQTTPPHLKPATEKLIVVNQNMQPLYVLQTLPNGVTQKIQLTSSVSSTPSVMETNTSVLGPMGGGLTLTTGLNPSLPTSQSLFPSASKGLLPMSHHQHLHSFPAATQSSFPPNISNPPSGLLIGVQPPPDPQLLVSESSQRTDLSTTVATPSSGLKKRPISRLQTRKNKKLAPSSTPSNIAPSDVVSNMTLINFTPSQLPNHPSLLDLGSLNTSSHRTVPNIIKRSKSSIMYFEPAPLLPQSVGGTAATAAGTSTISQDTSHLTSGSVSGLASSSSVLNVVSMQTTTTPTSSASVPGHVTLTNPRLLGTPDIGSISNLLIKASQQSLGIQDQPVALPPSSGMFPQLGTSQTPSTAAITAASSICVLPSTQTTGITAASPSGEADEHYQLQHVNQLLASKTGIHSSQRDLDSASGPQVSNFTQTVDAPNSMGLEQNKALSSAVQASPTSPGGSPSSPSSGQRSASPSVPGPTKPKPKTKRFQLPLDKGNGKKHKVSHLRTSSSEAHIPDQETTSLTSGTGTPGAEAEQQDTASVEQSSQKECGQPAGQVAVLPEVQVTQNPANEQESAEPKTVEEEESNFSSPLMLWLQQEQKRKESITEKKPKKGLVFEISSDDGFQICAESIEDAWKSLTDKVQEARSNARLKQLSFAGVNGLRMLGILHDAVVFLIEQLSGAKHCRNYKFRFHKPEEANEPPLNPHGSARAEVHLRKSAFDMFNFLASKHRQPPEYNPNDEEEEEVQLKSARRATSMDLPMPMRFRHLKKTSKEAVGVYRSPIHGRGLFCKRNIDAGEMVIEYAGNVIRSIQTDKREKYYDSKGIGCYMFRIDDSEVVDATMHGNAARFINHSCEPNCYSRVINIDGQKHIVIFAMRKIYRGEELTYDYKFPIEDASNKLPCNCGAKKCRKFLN

molecular target: Histone-lysine N-methyltransferase 2A (Homo sapiens) (UniProt Q03164); assay: qHTS Fluorescence Polarization Assay for Inhibitors of MLL CXXC domain - DNA interaction; details: MLL-CXXC / FITC-HOXA9 DNA fluorescence polarization; activity change, negative = inhibition: at 115 µM (top of the series)
Procedure, shortened: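 Fluorescence polarization: 7 uM MLL-CXXC (stock) preincubated 5 min with compounds, then 50 nM fluorescein-HOX-A9 DNA (stock) added; 30 min ambient. Buffer 50 mM Tris-HCl pH 7.5, 50 mM NaCl, 1 mM DTT, 0.05% BSA.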
Potency is read from the fitted curve at half-maximal effect.

| SMILES | Potency | activity change, negative = inhibition |
| --- | --- | --- |
| CN1C(=O)/C(=C/C=C2\SCCN2C)SC1=S | inconclusive: 20 µM [fluorescent, partial curve] |  |
| CCCCNC(=O)OCCNC(=O)NC |  | inactive: 0.983% |
| CC/C(=N\n1nnnc1Nc1ccccc1)c1ccccc1 |  | inactive: -7.02% |
| CCOc1cc(C2C(C#N)=C(N)SC(N)=C2C#N)ccc1OCCN1CCOCC1 | inconclusive: 35.5 µM [fluorescent, partial curve] |  |
| O=C(CN1CCOCC1)N/N=C/C(Br)=C\c1ccccc1 |  | inactive: 12.5% |
| O=C(Nc1ccc2c(c1)CCC2)c1cccc(F)c1 | inconclusive: 1.41 µM [fluorescent, side channel, full curve, poor fit] |  |
| C/C(=N\NC(=O)c1ccncc1)C12CC3CC(CC(C3)C1)C2 | inconclusive: 70.8 µM [fluorescent, side channel, partial curve, poor fit] |  |
| CC(C)(C)c1cc(NC(=O)c2cccc(S(=O)(=O)N3CCOCC3)c2)no1 |  | inactive: 0.564% |
| Cc1ccccc1N1C(=O)Cc2ccccc2C1=O | inconclusive: 44.7 µM [inhibitor, single point] |  |
| COC(=O)c1c(NC(=O)CN2CCN(c3ncccn3)CC2)sc(C(N)=O)c1C | inconclusive: 25.1 µM [fluorescent, side channel, partial curve] |  |
| COC(=O)/C(C#N)=C/c1c(-c2ccccc2)nc2n1CCS2 |  | inactive: -4.99% |
| CCn1cc(CN2CCCC(C(=O)Nc3cccc(-c4cc5ccccc5[nH]4)c3)C2)c(C)n1 (stereo not drawn) | inconclusive: 31.6 µM [quencher, side channel, partial curve, poor fit] |  |
| COc1cc(/C=N/NS(=O)(=O)c2ccccc2)c(OC)c(OC)c1 | inconclusive: 44.7 µM [fluorescent, side channel, single point] |  |
| CCOC(=O)c1sc(/N=C/c2ccc(O)cc2O)cc1C | inconclusive: 25.1 µM [fluorescent, side channel, partial curve] |  |
| Cc1ccc2nc(Nc3ccccc3)cc(C)c2c1 | inconclusive: 31.6 µM [quencher, side channel, single point] |  |
| CCCN1C(=O)/C(=C/c2ccc(N3CCOCC3)cc2)NC1=S | inconclusive: 22.4 µM [fluorescent, side channel, partial curve] |  |
| CSc1ccc(/C=C/c2ccc3cccc(O)c3n2)cc1 | inconclusive: 89.1 µM [inhibitor, single point] |  |
| Cc1cccc(C)c1NC(=O)Nc1ccc(S(N)(=O)=O)cc1 | inconclusive: 39.8 µM [inhibitor, single point] |  |

2 entries drawn at random from those above:

| SMILES | Potency | activity change, negative = inhibition |
| --- | --- | --- |
| O=C(CN1CCOCC1)N/N=C/C(Br)=C\c1ccccc1 |  | inactive: 12.5% |
| CCOc1cc(C2C(C#N)=C(N)SC(N)=C2C#N)ccc1OCCN1CCOCC1 | inconclusive: 35.5 µM [fluorescent, partial curve] |  |
